No constants are given. Whether binding was seen depends on the method and setting. In cells and extracts the contact can be indirect. Some binding calls cover weakened binding; strength is not graded here.
Assays:
Assay in all cases: pull-down; MBP-tagged protein from E. coli lysate bound to amylose resin and washed (1x TBS); soluble lysate of GST-tagged APC fragment added, 2 h at 4 °C; four washes, elution with 10 mM maltose; Western blot with anti-GST and anti-MBP; only the target purified
[1] = target: MBP-SOX17^216–414 (human) (UniProt Q9H6I2)
MBP-TCF7^152–359 (human) = MBP-TCF7^152–359 (human) (UniProt P36402)
MBP-SOX17^FL (human) = MBP-SOX17^FL (human) (UniProt Q9H6I2)
MBP-JUN^100–331 (human) = MBP-JUN^100–331 (human) (UniProt P05412)
MBP-SOX17^88–287 (human) = MBP-SOX17^88–287 (human) (UniProt Q9H6I2)
MBP-TCF7^FL (human) = MBP-TCF7^FL (human) (UniProt P36402)
MBP-JUN^FL (human) = MBP-JUN^FL (human) (UniProt P05412)

Chains of the proteins cited; added tags and fusions are not shown. Lines headed by an entry give the natural chain unless they say otherwise; changes in a name come on top. Residues count along the entry.
UniProt Q9H6I2: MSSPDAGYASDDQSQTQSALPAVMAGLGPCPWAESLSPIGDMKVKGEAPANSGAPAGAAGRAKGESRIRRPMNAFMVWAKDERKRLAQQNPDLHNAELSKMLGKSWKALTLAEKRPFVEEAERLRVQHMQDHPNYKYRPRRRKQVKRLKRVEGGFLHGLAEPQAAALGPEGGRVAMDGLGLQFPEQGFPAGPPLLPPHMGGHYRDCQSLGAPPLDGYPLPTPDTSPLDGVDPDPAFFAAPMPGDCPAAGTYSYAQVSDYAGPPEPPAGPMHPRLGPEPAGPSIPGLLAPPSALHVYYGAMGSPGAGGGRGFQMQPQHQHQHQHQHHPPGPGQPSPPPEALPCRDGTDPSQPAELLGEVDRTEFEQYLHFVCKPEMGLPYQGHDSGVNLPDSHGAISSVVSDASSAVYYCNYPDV
MBP-SOX17^88–287: residues 88-287 of Q9H6I2
MBP-SOX17^216–414: residues 216-414 of Q9H6I2
UniProt P36402: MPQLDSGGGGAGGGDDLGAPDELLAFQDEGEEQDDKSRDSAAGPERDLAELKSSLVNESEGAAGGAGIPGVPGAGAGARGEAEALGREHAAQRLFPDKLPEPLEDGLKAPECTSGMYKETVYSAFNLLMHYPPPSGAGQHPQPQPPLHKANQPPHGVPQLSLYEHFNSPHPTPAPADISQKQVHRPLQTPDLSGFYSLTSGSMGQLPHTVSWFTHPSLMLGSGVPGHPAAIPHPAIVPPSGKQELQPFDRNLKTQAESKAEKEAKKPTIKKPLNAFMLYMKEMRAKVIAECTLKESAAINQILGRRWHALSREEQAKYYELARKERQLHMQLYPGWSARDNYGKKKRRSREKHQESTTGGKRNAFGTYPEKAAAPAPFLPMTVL
MBP-TCF7^152–359: residues 152-359 of P36402
UniProt P05412: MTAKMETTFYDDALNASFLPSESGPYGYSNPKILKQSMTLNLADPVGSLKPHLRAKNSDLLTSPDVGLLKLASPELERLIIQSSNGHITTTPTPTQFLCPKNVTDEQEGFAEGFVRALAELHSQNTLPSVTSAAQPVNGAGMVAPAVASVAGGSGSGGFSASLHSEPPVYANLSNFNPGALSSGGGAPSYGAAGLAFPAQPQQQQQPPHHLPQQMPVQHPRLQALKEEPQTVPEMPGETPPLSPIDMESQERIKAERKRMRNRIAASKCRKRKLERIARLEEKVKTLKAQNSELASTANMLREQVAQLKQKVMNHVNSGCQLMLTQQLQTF
MBP-JUN^100–331: residues 100-331 of P05412
GST-APC^954–1203 (P25054, residues 954-1203): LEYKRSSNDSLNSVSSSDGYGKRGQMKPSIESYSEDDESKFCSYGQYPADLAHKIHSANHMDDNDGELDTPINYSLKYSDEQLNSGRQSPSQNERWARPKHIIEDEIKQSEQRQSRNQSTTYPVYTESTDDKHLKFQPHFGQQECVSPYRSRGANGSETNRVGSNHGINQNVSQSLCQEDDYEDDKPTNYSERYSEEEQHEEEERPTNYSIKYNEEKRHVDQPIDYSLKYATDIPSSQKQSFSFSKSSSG
GST-APC^1512–1761 (P25054, residues 1512-1761): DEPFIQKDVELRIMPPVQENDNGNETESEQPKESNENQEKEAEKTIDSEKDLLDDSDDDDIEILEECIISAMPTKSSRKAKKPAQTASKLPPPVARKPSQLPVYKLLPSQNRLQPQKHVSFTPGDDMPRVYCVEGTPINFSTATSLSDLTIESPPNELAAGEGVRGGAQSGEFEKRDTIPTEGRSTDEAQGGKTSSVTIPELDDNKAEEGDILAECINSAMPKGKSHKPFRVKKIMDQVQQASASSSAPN
GST-APC^1956–2232 (P25054, residues 1956-2232): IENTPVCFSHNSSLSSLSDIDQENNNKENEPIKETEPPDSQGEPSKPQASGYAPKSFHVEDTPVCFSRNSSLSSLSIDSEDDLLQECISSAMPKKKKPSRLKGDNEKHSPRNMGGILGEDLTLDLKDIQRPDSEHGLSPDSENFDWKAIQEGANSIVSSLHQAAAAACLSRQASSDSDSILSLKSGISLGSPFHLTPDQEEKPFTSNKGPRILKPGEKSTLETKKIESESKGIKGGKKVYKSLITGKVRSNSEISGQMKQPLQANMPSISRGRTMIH
GST-APC^2539–2772 (P25054, residues 2539-2772): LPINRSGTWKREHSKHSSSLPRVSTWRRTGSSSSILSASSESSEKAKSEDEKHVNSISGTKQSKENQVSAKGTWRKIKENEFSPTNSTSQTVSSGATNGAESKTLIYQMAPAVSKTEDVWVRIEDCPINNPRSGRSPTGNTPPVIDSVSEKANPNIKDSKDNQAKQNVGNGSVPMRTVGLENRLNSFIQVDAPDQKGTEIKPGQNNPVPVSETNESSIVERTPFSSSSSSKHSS

Row | binding [1] | binding (MBP-TCF7^152–359 (human)) | binding (MBP-SOX17^FL (human)) | binding (MBP-JUN^100–331 (human)) | binding (MBP-SOX17^88–287 (human)) | binding (MBP-TCF7^FL (human)) | binding (MBP-JUN^FL (human)) | Substance
1 | binds | binds | binds |  |  |  |  | GST-APC^954–1203 (from UniProt P25054 954-1203) (domain or fragment)
2 |  |  |  | binds |  |  |  | GST-APC^1512–1761 (from UniProt P25054 1512-1761) (domain or fragment)
3 | binds |  | binds |  | binds |  |  | GST-APC^1956–2232 (from UniProt P25054 1956-2232) (domain or fragment)
4 |  | binds |  | binds |  | binds | binds | GST-APC^2539–2772 (from UniProt P25054 2539-2772) (domain or fragment)
